US8609682B2 (priority 2008, dated 2013)

Tested on: guinea pig ileum longitudinal muscle strips
Experiment: Guinea pig ileum (GPI) assay
Parameters: species or system Hartley guinea pig
Details: Cavia porcellus

CN1CC[C@]23c4c5ccc(O)c4O[C@H]2[C@@H](O)C=C[C@H]3[C@H]1C5 [morphine, reference compound]
IC50: 0.0506 µM
